Experimental data: the supplement of paper PMC10849652
The other results are listed elsewhere or left out.

Chains of the proteins cited; added tags and fusions are not shown. Lines headed by an entry give the natural chain unless they say otherwise; changes in a name come on top.
UniProt Q9NUN5: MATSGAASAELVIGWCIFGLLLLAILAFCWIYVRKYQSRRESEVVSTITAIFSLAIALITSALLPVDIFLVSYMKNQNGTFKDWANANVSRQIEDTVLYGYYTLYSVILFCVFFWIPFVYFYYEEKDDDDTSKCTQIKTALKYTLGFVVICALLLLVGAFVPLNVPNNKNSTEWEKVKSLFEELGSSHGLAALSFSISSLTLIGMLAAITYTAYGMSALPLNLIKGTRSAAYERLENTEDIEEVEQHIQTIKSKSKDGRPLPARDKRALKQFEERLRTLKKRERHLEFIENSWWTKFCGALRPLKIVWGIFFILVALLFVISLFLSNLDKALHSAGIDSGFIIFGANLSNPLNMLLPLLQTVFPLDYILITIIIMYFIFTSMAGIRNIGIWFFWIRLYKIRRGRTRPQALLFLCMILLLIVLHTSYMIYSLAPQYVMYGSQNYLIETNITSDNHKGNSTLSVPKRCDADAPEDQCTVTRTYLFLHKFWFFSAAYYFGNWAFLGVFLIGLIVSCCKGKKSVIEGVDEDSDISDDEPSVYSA
UniProt P61968: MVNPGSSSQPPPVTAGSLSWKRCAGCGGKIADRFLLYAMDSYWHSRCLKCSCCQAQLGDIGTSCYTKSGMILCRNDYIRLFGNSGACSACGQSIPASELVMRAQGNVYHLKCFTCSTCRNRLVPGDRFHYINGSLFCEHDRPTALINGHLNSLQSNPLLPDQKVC
UniProt Q6P1M3: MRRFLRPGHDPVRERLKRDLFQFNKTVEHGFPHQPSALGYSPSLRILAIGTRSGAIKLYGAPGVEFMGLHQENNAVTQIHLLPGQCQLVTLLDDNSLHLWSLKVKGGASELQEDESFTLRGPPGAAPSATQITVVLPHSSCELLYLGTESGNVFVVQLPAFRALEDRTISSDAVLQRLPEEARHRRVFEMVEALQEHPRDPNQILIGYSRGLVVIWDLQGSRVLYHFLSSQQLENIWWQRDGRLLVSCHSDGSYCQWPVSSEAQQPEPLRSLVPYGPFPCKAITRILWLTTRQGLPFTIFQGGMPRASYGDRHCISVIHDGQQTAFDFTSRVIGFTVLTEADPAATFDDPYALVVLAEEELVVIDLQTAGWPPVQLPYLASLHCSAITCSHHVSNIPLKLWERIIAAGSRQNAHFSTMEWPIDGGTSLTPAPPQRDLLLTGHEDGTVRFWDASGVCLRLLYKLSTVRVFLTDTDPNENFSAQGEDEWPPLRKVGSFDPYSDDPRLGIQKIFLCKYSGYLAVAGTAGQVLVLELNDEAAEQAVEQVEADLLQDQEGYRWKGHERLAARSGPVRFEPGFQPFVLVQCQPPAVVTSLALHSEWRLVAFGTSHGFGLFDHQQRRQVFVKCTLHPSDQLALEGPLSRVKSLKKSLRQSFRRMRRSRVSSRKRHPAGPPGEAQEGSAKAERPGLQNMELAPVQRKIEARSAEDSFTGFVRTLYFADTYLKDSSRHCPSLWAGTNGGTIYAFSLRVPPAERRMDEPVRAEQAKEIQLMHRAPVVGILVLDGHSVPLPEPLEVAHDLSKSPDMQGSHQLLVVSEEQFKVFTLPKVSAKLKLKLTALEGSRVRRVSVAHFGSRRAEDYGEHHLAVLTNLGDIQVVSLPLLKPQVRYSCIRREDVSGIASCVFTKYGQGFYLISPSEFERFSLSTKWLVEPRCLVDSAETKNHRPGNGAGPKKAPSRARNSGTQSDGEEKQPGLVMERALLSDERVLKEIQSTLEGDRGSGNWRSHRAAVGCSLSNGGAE
UniProt O95214: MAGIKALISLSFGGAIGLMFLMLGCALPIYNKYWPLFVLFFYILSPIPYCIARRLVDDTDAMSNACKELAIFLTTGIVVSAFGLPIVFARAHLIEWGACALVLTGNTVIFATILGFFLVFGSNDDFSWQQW
UniProt Q96PV6, whole entry, looked up: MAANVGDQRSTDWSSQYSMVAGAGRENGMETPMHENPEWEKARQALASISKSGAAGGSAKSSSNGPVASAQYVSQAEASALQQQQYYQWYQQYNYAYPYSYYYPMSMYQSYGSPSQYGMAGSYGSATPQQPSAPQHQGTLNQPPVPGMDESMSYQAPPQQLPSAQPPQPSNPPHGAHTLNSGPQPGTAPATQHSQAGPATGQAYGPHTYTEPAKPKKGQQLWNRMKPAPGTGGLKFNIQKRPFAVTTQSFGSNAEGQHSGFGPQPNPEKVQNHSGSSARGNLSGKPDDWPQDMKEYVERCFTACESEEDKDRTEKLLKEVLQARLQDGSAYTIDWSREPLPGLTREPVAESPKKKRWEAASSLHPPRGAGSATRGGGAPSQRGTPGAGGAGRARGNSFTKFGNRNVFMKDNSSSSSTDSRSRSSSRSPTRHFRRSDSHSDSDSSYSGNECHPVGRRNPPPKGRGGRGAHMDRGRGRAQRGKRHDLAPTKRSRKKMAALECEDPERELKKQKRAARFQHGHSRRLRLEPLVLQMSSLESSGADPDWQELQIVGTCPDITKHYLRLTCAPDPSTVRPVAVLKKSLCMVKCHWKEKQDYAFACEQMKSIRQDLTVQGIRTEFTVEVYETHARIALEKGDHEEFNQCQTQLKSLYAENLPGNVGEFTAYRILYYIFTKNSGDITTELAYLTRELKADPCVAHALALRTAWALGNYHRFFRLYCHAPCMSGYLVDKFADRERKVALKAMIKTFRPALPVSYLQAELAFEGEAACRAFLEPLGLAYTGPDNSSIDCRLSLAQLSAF
UniProt Q9NT99: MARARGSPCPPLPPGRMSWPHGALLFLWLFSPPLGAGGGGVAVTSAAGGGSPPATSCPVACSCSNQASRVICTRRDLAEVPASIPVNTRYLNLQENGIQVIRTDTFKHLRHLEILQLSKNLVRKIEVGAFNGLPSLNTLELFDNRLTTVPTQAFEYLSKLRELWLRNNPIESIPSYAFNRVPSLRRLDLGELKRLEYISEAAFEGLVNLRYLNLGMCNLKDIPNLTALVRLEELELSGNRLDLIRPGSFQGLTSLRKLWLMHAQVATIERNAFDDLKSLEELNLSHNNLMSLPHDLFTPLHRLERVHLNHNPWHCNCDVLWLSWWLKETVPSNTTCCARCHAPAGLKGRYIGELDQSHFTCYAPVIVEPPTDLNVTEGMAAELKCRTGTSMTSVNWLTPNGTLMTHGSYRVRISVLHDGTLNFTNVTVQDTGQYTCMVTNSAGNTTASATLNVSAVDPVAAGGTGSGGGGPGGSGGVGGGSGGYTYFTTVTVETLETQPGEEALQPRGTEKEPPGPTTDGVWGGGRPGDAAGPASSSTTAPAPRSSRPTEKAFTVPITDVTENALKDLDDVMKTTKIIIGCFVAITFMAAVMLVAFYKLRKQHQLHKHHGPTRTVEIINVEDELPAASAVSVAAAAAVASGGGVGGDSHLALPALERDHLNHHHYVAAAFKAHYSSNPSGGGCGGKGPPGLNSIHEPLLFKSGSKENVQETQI
UniProt Q6P5S2: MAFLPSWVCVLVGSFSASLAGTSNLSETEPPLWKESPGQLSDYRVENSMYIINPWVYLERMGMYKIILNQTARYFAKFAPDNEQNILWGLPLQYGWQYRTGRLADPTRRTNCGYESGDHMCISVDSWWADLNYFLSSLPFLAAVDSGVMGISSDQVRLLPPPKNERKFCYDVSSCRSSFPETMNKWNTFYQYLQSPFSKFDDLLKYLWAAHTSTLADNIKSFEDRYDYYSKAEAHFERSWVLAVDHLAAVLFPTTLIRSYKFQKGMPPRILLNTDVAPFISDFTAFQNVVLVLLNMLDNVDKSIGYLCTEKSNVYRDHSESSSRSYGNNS
UniProt P13473: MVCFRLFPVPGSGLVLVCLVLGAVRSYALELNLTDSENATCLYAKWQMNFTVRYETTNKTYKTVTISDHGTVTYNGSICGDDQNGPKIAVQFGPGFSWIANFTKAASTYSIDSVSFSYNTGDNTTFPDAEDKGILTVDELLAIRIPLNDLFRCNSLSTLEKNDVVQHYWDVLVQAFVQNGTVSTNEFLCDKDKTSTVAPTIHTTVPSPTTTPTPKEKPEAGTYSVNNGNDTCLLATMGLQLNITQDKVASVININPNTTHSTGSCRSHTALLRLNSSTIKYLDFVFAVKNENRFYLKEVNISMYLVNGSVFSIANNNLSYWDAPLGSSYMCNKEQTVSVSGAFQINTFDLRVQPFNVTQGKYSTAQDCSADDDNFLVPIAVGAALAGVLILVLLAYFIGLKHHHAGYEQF
UniProt Q6P1Q0: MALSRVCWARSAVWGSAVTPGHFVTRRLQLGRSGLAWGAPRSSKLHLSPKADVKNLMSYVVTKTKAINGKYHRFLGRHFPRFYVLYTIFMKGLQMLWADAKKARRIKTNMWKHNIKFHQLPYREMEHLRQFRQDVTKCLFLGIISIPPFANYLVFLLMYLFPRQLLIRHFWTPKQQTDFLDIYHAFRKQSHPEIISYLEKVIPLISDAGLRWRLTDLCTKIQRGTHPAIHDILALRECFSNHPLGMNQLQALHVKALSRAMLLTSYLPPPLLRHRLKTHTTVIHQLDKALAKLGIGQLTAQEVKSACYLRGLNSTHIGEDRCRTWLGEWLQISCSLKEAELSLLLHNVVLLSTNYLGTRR
UniProt Q15048: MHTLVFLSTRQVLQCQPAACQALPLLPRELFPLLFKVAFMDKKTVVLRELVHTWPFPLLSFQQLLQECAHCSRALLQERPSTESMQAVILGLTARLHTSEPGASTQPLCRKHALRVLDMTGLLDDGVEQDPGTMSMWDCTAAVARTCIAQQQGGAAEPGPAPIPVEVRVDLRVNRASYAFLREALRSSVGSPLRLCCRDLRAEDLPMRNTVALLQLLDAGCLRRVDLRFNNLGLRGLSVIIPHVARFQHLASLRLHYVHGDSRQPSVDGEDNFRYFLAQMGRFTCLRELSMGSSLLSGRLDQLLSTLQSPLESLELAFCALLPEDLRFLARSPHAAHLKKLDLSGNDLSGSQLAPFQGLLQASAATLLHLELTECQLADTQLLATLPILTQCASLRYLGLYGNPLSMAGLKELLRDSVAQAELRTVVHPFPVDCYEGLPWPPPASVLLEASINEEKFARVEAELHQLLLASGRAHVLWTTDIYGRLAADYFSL
UniProt Q9BQK8: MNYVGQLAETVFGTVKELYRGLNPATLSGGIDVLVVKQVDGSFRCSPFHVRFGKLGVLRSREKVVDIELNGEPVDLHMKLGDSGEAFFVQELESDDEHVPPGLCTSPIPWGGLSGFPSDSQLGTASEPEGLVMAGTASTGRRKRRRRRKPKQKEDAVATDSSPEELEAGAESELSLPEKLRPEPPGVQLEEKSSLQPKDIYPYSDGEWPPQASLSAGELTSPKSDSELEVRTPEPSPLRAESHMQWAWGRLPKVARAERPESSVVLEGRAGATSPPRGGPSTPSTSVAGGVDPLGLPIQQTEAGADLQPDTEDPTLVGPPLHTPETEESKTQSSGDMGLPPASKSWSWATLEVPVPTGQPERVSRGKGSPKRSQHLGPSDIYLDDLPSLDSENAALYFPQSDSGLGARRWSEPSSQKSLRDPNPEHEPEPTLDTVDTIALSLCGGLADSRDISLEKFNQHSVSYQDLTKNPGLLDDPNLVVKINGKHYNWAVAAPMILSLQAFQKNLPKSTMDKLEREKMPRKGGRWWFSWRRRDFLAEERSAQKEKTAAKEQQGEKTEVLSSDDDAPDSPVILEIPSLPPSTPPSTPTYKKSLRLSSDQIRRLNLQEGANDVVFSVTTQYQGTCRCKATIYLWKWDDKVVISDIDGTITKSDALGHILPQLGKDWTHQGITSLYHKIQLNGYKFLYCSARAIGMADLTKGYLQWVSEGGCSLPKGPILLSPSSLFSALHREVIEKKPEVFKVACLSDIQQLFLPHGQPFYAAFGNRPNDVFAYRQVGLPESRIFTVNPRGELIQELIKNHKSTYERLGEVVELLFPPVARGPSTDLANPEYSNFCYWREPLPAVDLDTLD
UniProt O60294: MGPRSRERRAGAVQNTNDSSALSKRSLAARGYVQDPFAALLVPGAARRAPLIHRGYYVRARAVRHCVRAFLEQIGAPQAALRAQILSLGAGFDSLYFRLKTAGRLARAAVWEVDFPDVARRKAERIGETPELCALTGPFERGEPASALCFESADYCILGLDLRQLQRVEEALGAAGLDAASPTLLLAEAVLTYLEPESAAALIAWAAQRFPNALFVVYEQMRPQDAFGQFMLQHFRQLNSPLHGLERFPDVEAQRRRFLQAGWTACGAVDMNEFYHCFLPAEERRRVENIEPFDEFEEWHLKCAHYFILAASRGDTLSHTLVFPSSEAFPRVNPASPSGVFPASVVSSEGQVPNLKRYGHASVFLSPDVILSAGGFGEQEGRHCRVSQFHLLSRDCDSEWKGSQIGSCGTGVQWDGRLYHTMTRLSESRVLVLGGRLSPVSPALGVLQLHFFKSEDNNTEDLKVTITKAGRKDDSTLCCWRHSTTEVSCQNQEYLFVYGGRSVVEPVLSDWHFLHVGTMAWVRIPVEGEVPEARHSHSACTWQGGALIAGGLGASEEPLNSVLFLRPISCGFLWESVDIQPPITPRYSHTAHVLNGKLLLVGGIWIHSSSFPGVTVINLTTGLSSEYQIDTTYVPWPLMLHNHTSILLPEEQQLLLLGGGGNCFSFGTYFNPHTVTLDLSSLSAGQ

compound: COc1cc(C(=O)O)ccc1NC(=O)[C@@H]1N[C@@H](CC(C)(C)C)[C@](C#N)(c2ccc(Cl)cc2F)[C@H]1c1cccc(Cl)c1F [idasanutlin]; assay: log2 fold change, soluble protein after heating vs DMSO (PISA); higher = thermal stabilisation; K562 cells, 10 uM, 30 min; active = over 0.2 and 3.5 SD of the protein, either way, in both replicates (recomputed)
How it was run: (§1)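 Thermal stability values are relative to control samples and come from duplicates. They are expressed as log2 fold changes. For measurement, K562 cells (2×10^6 cells/mL) received 10 μM compound for 30 min, and aliquots were heated for 3 min over 48°C-58°C, pooled, and extracted at 4°C in PBS with 0.5% NP-40. Soluble protein, the supernatant after 21,000xg for 90 min, was quantified by TMTpro 16plex LC-MS/MS with equalised channel sums.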

log2 fold change, inactive:
LAS1L (UniProt Q9Y4W2) 0.517
LMBRD1 (UniProt Q9NUN5) 0.102
LRP6 (UniProt O75581) -0.085
LMO4 (UniProt P61968) -0.043
LGALS8 isoform 2 (UniProt O00214) 0.182
LLGL2 (UniProt Q6P1M3) 0.024
LEPROTL1 isoform 2 (UniProt O95214) -0.127
LENG8 (UniProt Q96PV6) -0.151
LIG3 (UniProt P49916) -0.176
LRRC4B (UniProt Q9NT99) 0.007
LIN37 (UniProt Q96GY3) 0.044
LCP2 (UniProt Q13094) 0.074
L1TD1 (UniProt Q5T7N2) -0.009
LEG1 (UniProt Q6P5S2) 0.022
LANCL3 (UniProt Q6ZV70) -0.047
LAMP2 isoform 2 (UniProt P13473) 0.017
LINS1 (UniProt Q8NG48) 0.078
LETMD1 isoform 7 (UniProt Q6P1Q0) -0.192
LRRC14 (UniProt Q15048) -0.071
LPIN3 isoform 2 (UniProt Q9BQK8) -0.075

compound: COc1cc(Nc2ncc3c(n2)-c2ccc(Cl)cc2C(c2c(F)cccc2OC)=NC3)ccc1C(=O)O [alisertib]; assay: as above
How it was run: as §1

log2 fold change, inactive:
LMBRD1 (UniProt Q9NUN5) -0.022
LMO4 (UniProt P61968) 0.117
LCMT2 (UniProt O60294) -0.168
LGALS8 isoform 2 (UniProt O00214) -0.021
LLGL2 (UniProt Q6P1M3) -0.089
LEPROTL1 isoform 2 (UniProt O95214) 0
LENG8 (UniProt Q96PV6) -0.149
LIG3 (UniProt P49916) 0.041
LGALSL (UniProt Q3ZCW2) 1.12
L1TD1 (UniProt Q5T7N2) 0
LEG1 (UniProt Q6P5S2) 0.073
LAMP2 isoform 2 (UniProt P13473) -0.105
LINS1 (UniProt Q8NG48) 0.148
LETMD1 isoform 7 (UniProt Q6P1Q0) -0.012
LRG1 (UniProt P02750) 0.024
LRRC14 (UniProt Q15048) -0.09
LPIN3 isoform 2 (UniProt Q9BQK8) 0.022

compound: COc1cc2nc(-c3cc(F)ccc3O)nc(N[C@@H]3CNC[C@H]3C(C)(C)O)c2cc1OC; assay: as above
How it was run: as §1

log2 fold change, inactive:
LAS1L (UniProt Q9Y4W2) -0.174
LMBRD1 (UniProt Q9NUN5) -0.062
LLGL1 (UniProt Q15334) -0.13
LRP6 (UniProt O75581) 0.067
LMO4 (UniProt P61968) -0.212
LCMT2 (UniProt O60294) 0.374
LLGL2 (UniProt Q6P1M3) 0.099
LEPROTL1 isoform 2 (UniProt O95214) -0.041
LIMK1 (UniProt P53667) -0.048
LIG3 (UniProt P49916) -0.123
LRRC4B (UniProt Q9NT99) -0.141
LIN37 (UniProt Q96GY3) 0.018
LEG1 (UniProt Q6P5S2) 0.124
LRFN1 (UniProt Q9P244) 0.025
LAMP2 isoform 2 (UniProt P13473) -0.027
LETMD1 isoform 7 (UniProt Q6P1Q0) -0.269
LRG1 (UniProt P02750) -0.062
LRRC14 (UniProt Q15048) -0.079
LPIN3 isoform 2 (UniProt Q9BQK8) 0.111

compound: COc1cc2ncnc(Nc3ccc(F)c(Cl)c3)c2cc1OCCCN1CCOCC1 [gefitinib]; assay: as above
How it was run: as §1

log2 fold change, inactive:
LMBRD1 (UniProt Q9NUN5) 0
LPP (UniProt Q93052) 0.247
LCMT2 (UniProt O60294) 0.156
LLGL2 (UniProt Q6P1M3) -0.059
LEPROTL1 isoform 2 (UniProt O95214) -0.092
LENG8 (UniProt Q96PV6) -0.056
LIG3 (UniProt P49916) -0.004
LRRC4B (UniProt Q9NT99) -0.238
LEG1 (UniProt Q6P5S2) 0.049
LANCL3 (UniProt Q6ZV70) 0.044
LAMP2 isoform 2 (UniProt P13473) -0.039
LETMD1 isoform 7 (UniProt Q6P1Q0) -0.103
LRRC14 (UniProt Q15048) 0.065
LPIN3 isoform 2 (UniProt Q9BQK8) -0.029
